Measurements as given in patent US4649203A, “Ketoalkylphospholipids” (Takeda Chemical Industries, Ltd., priority 1983, dated 1987).
Entries after “also recorded” stand apart in the source; their conditions may differ. At least one structure is not confirmed: it was looked up by name or label, or the drawing left a doubt.

System: washed PRP (platelets)
Assay: Action on platelets: platelet aggregation caused by test drug (Test Example 9)
Type: cell-based
Details: 3×10^-5 M, rabbit washed PRP, 37° C.
Protocol: A blood sample was taken from a male rabbit using a syringe containing 3.15% citric acid (1 to 9 volumes of blood) as anticoagulant, and centrifuged at 1000 rpm and room temperature for 10 minutes to give platelet rich plasma (PRP). The PRP was further centrifuged at 1400 rpm for 15 minutes. The platelet pellet thus obtained was suspended in Ca^++ -free Tyrode (containing 0.25% of gelatin). A 250 μl portion of the thus-prepared washed PRP was stirred at 37° C. for 2 minutes, then 25 μl of 0.2-0.5 mM Ca^++ solution was added and the mixture was further stirred for 30 seconds. Thereafter, the test drug was added in an amount sufficient to make a concentration of 3×10^-5M. Platelet aggregation was measured using an aggregation meter (Rigaku Denki).

CCCCCCCCCCCCCCCCC(=O)COCC(COP(=O)([O-])OCC[n+]1ccsc1)OC (stereo not shown) [Example 8, 3-(2-Oxooctadecyloxy)-2-methoxypropyl 2-thiazolioethyl phosphate]
platelet aggregation (in words): did not cause aggregation at all; also recorded: No aggregation
